Reference: patent US8148355B2, “Phophylactic and therapeutic use of hydroxysteroids” (Hunter-Fleming Limited, priority 2001, dated 2012)

Test system: Langendorf perfused male rat hearts
Assay: Cardioprotective effect in Langendorf perfused rat hearts (regional ischaemia/reperfusion, infarct size)
Design: species or system Wistar rats

C[C@]12CC[C@H](O)C[C@@H]1C[C@H](O)[C@@H]1[C@@H]2CC[C@]2(C)C(=O)CC[C@@H]12 [7βOH-EPIA, 7β-hydroxyepiandrosterone]
Coronary flow (100 nM in perfusate): not influenced
Risk zone volume (mm3) (100 nM in perfusate, control 109.3): 98.9 mm3
heart function in conjunction with drug addition (100 nM, addition by itself before ischaemia): did not result in detectable changes in heart function
global left ventricular systolic pressure parameters (100 nM, during regional ischaemia (p<0.05 at 25 minutes), disappeared after reperfusion): slight reduction
decline of left ventricular developed pressure (LVDP) during regional ischaemia (100 nM, versus control): larger in drug treated hearts compared to the control
Heart-rate (100 nM, versus control group): not significantly different
diastolic pressure (100 nM, versus control group): No differences
